ChEMBL document CHEMBL5550209, “Hit-to-Lead Optimization of Heterocyclic Carbonyloxycarboximidamides as Selective Antagonists at Human Adenosine A3 Receptor” (J Med Chem, 2024)

Assay: in vitro
Conditions: human, Caco-2

CC(C)NCC(O)COc1cccc2ccccc12 (stereo unspecified) [PROPRANOLOL]
Papp B→A: 326 nm/s
